Assay results as given in PubChem BioAssay AID256 (DTP/NCI, 2004).
The list does not hold the whole screen: it is rich in T/C values a quarter to a half above the control, in often repeated tests (any T/C) and in doses without a T/C. Further doses and runs are listed elsewhere. T/C is the treated group as % of the vehicle group. Some entries give survivors of the animals treated and no T/C: the source holds a T/C of zero for them, seemingly a mark for toxic or unscored doses. Some survivor counts are full or nearly so, which does not show that the dose was tolerated: survival well below the control is almost never listed, so the zero probably covers shortened survival too. Survivors were counted at the toxicity check, usually on the fifth day, unless a day is given; later deaths do not show. Schedules are NCI's codes, taken here to give the interval after Q, in days (D) or hours (H), and the number of doses after X. Some doses were run more than once; their values stand side by side, smallest first. For survival time, this PubChem deposit counts one and a half times the control or more as active, and values a quarter to a half above the control carry no call in these data; other NCI protocols may use other cut-offs. Some schedules carry Z or #; the key to these is not given.

System: CD2F1 mice, L1210 leukemia ip, survival T/C
Test: NCI In Vivo Anticancer Drug Screen. Data for tumor model L1210 Leukemia (intraperitoneal) in CD2F1 (CDF1) mice
Details: higher T/C = longer survival
Summary of the method: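 Implant tumor; dose compound or vehicle; measure endpoint in both groups; report treated divided by control.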

[1] = T/C endpoint: mean survival time, dose: 400.0 mg/kg/injection, schedule: Q01DX009 (ip), vehicle: saline with Tween-80
[2] = T/C endpoint: mean survival time, dose: 400.0 mg/kg/injection, schedule: Q04DX003 (ip), vehicle: saline
[3] = T/C endpoint: mean survival time, dose: 200.0 mg/kg/injection, schedule: Q01DX009 (ip), vehicle: saline with Tween-80
[4] = T/C endpoint: median survival time, dose: 25.0 mg/kg/injection, schedule: Q01DX005 (ip), vehicle: saline
[5] = T/C endpoint: median survival time, dose: 100.0 mg/kg/injection, schedule: Q01DX005 (ip), vehicle: saline
[6] = T/C endpoint: median survival time, dose: 200.0 mg/kg/injection, schedule: Q01DX005 (ip), vehicle: saline
[7] = T/C endpoint: median survival time, dose: 400.0 mg/kg/injection, schedule: Q01DX005 (ip), vehicle: saline
[8] = T/C endpoint: mean survival time, dose: 200.0 mg/kg/injection, schedule: Q04DX003 (ip), vehicle: saline with Tween-80
[9] = T/C endpoint: mean survival time, dose: 400.0 mg/kg/injection, schedule: Q04DX003 (ip), vehicle: saline with Tween-80

NC(=O)C[n+]1cccc(C(=O)Nc2ccccc2)c1
survivor count (T/C endpoint: mean survival time, dose: 400.0 mg/kg/injection, schedule: Q01DX009 (ip), vehicle: saline sonified): 3 of 6

CN1C(=O)NC(c2ccc(Cl)cc2)(c2ccc(Cl)cc2)C1=O
survivor count (T/C endpoint: mean survival time, dose: 400.0 mg/kg/injection, schedule: Q01DX009 (ip), vehicle: distilled water + Tween-80): 4 of 6 | survivor count [1]: 3 of 6

CCCCNC(C)(C)C(SS)c1ccc(Cl)cc1 (stereo not given)
survivor count [2]: 1 of 6

O=C(O)C1(Br)CCC1
survivor count (T/C endpoint: mean survival time, dose: 200.0 mg/kg/injection, schedule: Q04DX002 (ip), vehicle: saline with Tween-80): 1 of 3 | survivor count (T/C endpoint: mean survival time, dose: 400.0 mg/kg/injection, schedule: Q04DX002 (ip), vehicle: saline with Tween-80): 0 of 3

CCOc1ccc(Cl)cc1
survivor count [3]: 3 of 6

NC(=S)N/N=C/c1ncccc1O
T/C (T/C endpoint: mean survival time, dose: 6.25 mg/kg/injection, schedule: Q03HX024 (ip), vehicle: saline): 138 % of control | T/C (T/C endpoint: mean survival time, dose: 12.5 mg/kg/injection, schedule: Q03HX024 (ip), vehicle: saline): 137 and 145 % of control | T/C (T/C endpoint: mean survival time, dose: 25.0 mg/kg/injection, schedule: Q03HX024 (ip), vehicle: saline): 130 % of control | T/C (T/C endpoint: median survival time, dose: 11.25 mg/kg/injection, schedule: Q03HX024 (ip), vehicle: saline): 132 % of control | T/C (T/C endpoint: median survival time, dose: 12.5 mg/kg/injection, schedule: Q01DX005 (ip), vehicle: saline): 139 % of control | T/C (T/C endpoint: median survival time, dose: 22.5 mg/kg/injection, schedule: Q03HX024 (ip), vehicle: saline): 135 % of control | T/C [4]: 134 % of control | T/C (T/C endpoint: median survival time, dose: 25.0 mg/kg/injection, schedule: Q01DX005 (ip), vehicle: suspension in saline): 144 % of control | T/C (T/C endpoint: median survival time, dose: 45.0 mg/kg/injection, schedule: Q03HX024 (ip), vehicle: saline): 135 % of control | T/C (T/C endpoint: median survival time, dose: 50.0 mg/kg/injection, schedule: Q01DX005 (ip), vehicle: suspension in saline): 141 % of control | T/C (T/C endpoint: median survival time, dose: 90.0 mg/kg/injection, schedule: Q03HX024 (ip), vehicle: saline): 142 % of control | T/C [5]: 147 % of control | survivor count (T/C endpoint: median survival time, dose: 108.0 mg/kg/injection, schedule: Q03HX008 (ip), vehicle: suspension in saline): 5 of 6 | survivor count (T/C endpoint: median survival time, dose: 161.6 mg/kg/injection, schedule: Q03HX008 (ip), vehicle: suspension in saline): 3 of 6 | T/C (T/C endpoint: median survival time, dose: 161.6 mg/kg/injection, schedule: Q04DX003 (ip), vehicle: suspension in saline): 132 % of control | T/C (T/C endpoint: median survival time, dose: 180.0 mg/kg/injection, schedule: Q04DX003 (ip), vehicle: suspension in saline): 130 % of control | survivor count [6]: 4 of 6 | T/C (T/C endpoint: median survival time, dose: 360.0 mg/kg/injection, schedule: Q04DX003 (ip), vehicle: suspension in saline): 142 % of control | survivor count [7]: 2 of 6 | survivor count (T/C endpoint: median survival time, dose: 400.0 mg/kg/injection, schedule: Q01DX005 (ip), vehicle: suspension in saline): 5 of 6

CC(=O)Nc1ccc2ccccc2c1-c1c(NC(C)=O)ccc2ccccc12
survivor count [8]: 6 of 6

CCN=c1cc2oc3cc(NCC)c(C)cc3c(-c3ccccc3C(=O)OCC)c-2cc1C
survivor count (T/C endpoint: mean survival time, dose: 20.0 mg/kg/injection, schedule: Q04DX003 (ip), vehicle: saline): 3 of 6 | survivor count (T/C endpoint: mean survival time, dose: 40.0 mg/kg/injection, schedule: Q04DX003 (ip), vehicle: saline): 0 of 6 | survivor count (T/C endpoint: mean survival time, dose: 100.0 mg/kg/injection, schedule: Q04DX003 (ip), vehicle: saline): 0 of 6 | survivor count (T/C endpoint: mean survival time, dose: 200.0 mg/kg/injection, schedule: Q04DX003 (ip), vehicle: saline): 0 of 6 | survivor count [2]: 0 of 6

CN(C)CC(C)(C)C(=O)c1ccccc1
survivor count (T/C endpoint: mean survival time, dose: 200.0 mg/kg/injection, schedule: Q04DX002 (ip), vehicle: saline): 0 of 3 | survivor count (T/C endpoint: mean survival time, dose: 400.0 mg/kg/injection, schedule: Q04DX002 (ip), vehicle: saline): 0 of 3

CN(C)N=Nc1ccc(C(=O)O)cc1
T/C (T/C endpoint: mean survival time, dose: 100.0 mg/kg/injection, schedule: Q01DX009 (ip), vehicle: saline): 142 % of control | T/C (T/C endpoint: mean survival time, dose: 150.0 mg/kg/injection, schedule: Q01DX009 (ip), vehicle: saline): 130 % of control | survivor count (T/C endpoint: mean survival time, dose: 400.0 mg/kg/injection, schedule: Q01DX009 (ip), vehicle: saline): 5 of 6 | T/C [4]: 127 % of control | T/C (T/C endpoint: median survival time, dose: 50.0 mg/kg/injection, schedule: Q01DX005 (ip), vehicle: saline): 139 % of control | T/C (T/C endpoint: median survival time, dose: 60.0 mg/kg/injection, schedule: Q01DX005 (ip), vehicle: saline): 134 % of control | T/C [5]: 146 % of control | T/C [6]: 133 % of control | survivor count (T/C endpoint: median survival time, dose: 277.7 mg/kg/injection, schedule: Q01DX005 (ip), vehicle: saline): 5 of 6 | survivor count [7]: 2 of 6 and 6 of 6

O=C(O)c1cccc2ccc(Br)cc12
survivor count (T/C endpoint: median survival time, dose: 400.0 mg/kg/injection, schedule: Q04DX002 (ip), vehicle: saline with Tween-80): 2 of 3

Nc1nc(Cl)c2[nH]cnc2n1
T/C (T/C endpoint: mean survival time, dose: 20.0 mg/kg/injection, schedule: Q01DX009 (ip), vehicle: saline with Tween-80): 149 % of control | T/C (T/C endpoint: mean survival time, dose: 30.0 mg/kg/injection, schedule: Q01DX009 (ip), vehicle: saline with Tween-80): 148 % of control | T/C [3]: 130 % of control | T/C (T/C endpoint: mean survival time, dose: 225.0 mg/kg/injection, schedule: Q04DX003 (ip), vehicle: saline with Tween-80): 147 % of control | survivor count (T/C endpoint: mean survival time, dose: 300.0 mg/kg/injection, schedule: Q04DX003 (ip), vehicle: saline with Tween-80): 6 of 6 | survivor count [9]: 3 of 6

c1ccc(C[N+]23CCC(CC2)CC3)cc1
survivor count (T/C endpoint: mean survival time, dose: 25.0 mg/kg/injection, schedule: Q04DX003 (ip), vehicle: saline): 6 of 6

COc1cc(OC)c(C(=O)CCl)c(O)c1Cl
survivor count [3]: 0 of 6 | survivor count [1]: 0 of 6

O=C(O)c1cc(-c2ccc(Cl)cc2)nc2c1ccc1ccccc12
survivor count (T/C endpoint: mean survival time, dose: 400.0 mg/kg/injection, schedule: Q01DX001 (ip), vehicle: saline): 1 of 6

Cc1cc(CSC(=N)N)c(C)cc1CSC(=N)N
survivor count (T/C endpoint: mean survival time, dose: 100.0 mg/kg/injection, schedule: Q04DX003 (ip), vehicle: saline with Tween-80): 0 of 6 | survivor count [8]: 0 of 6 | survivor count [9]: 0 of 6

NCC[Se][Se]CCN
survivor count (T/C endpoint: median survival time, dose: 12.5 mg/kg/injection, schedule: Q01DX009 (ip), vehicle: suspension in saline): 2 of 6

Nc1ncnc2c1ccn2C1OC(CO)C(O)C1O (stereo not given)
T/C (T/C endpoint: mean survival time, dose: 2.0 mg/kg/injection, schedule: Q01DX001 (ip), vehicle: carboxymethylcellulose (CMC)): 127 % of control | survivor count (T/C endpoint: mean survival time, dose: 2.0 mg/kg/injection, schedule: Q01DX009 (ip), vehicle: saline): 3 of 6 and 6 of 6 | survivor count (T/C endpoint: mean survival time, dose: 4.0 mg/kg/injection, schedule: Q01DX009 (ip), vehicle: saline): 6 of 6 | T/C (T/C endpoint: mean survival time, dose: 4.0 mg/kg/injection, schedule: Q#A X002 (ip), vehicle: carboxymethylcellulose (CMC)): 127 % of control | survivor count (T/C endpoint: mean survival time, dose: 5.0 mg/kg/injection, schedule: Q01DX009 (ip), vehicle: saline): 4 of 6 | survivor count (T/C endpoint: median survival time, dose: 1.0 mg/kg/injection, schedule: Q03HX024 (ip), vehicle: other): 9 of 10 | survivor count (T/C endpoint: median survival time, dose: 2.0 mg/kg/injection, schedule: Q01DX009 (ip), vehicle: other): 10 of 10 | survivor count (T/C endpoint: median survival time, dose: 2.0 mg/kg/injection, schedule: Q03HX008 (ip), vehicle: other): 2 of 10 | survivor count (T/C endpoint: median survival time, dose: 2.0 mg/kg/injection, schedule: Q03HX016 (ip), vehicle: other): 1 of 10 | survivor count (T/C endpoint: median survival time, dose: 4.0 mg/kg/injection, schedule: Q01DX009 (ip), vehicle: other): 10 of 10 | survivor count (T/C endpoint: median survival time, dose: 16.0 mg/kg/injection, schedule: Q01DX001 (ip), vehicle: other): 2 of 10 | survivor count (T/C endpoint: median survival time, dose: 16.0 mg/kg/injection, schedule: Q01DX001 (sc), vehicle: other): 10 of 10 | survivor count (T/C endpoint: median survival time, dose: 16.0 mg/kg/injection, schedule: Q08DX002 (ip), vehicle: other): 3 of 10

C1=CC2C=CC12 (stereo not given)
survivor count [3]: 6 of 6 | survivor count [9]: 6 of 6
